# Laboratory results published in PubChem BioAssay AID1347423 (Functional Genomics Laboratory (NCATS/FGL), 2020).
# Values joined by “and” are separate entries in the source; they are usually repeats but may differ in a detail not shown here. Identical values can stand only once. Hit rate of the full screen: of about 52,000 sequences, about 210 (0.4%) were called active.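 Rule for the calls: active = gene whose silencing raises cell survival under the drug, median off-target-corrected z-score across its silencing RNAs 2 or more; inactive = the rest.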 The list shows a part of the results.
# Assay: Resistance to Poly (ADP-Ribose) Polymerase inhibitor: Gene Identification via Genome-wide siRNA Screen
# Settings: mouse BRCA2 R2336H ES cells, olaparib, CellTiter-Glo viability; hits give high values
# How it was run: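 Mouse BRCA2 R2336H ES cells were reverse-transfected with siRNA (20 nM final), treated at 48 h with 500 nM olaparib, and read by CellTiter-Glo after 72 h. Scores: MAD-based z per siRNA, median per gene, seed off-target correction.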
row,Sequence,z-score
1,GGGAAGGAUAUCAUUGUGCTT against Olfr920,inactive: 0.061
2,GCCUUUCUACAGGUCUCUCTT against Asb18,inactive: 0.335
3,GGGUUGAUAGCAGAUAUCCTT against Cd52,inactive: 0.174
4,GCUAUAAAAUCUGCACAAGTT against Amy2,inactive: -0.799
5,GGCUCUUCUUAUGCACCCUTT against Pdyn,inactive: 0.386
6,GGAAAGAGCCAUCCUUUGATT against Gnmt,inactive: -0.468
7,CCACCAAUCCCAUCCAAAUTT against Sox2,inactive: -0.113
8,GGGUGAGAUAGGAAAGUGGTT against 1810048P08Rik,inactive: -0.244
9,GGGUUCAACACAUUCUCUGTT against V1re4,inactive: 0.714
10,UUGGUUCAACUGCAUCGAATT against Olfr872,inactive: 0.373
11,GCCGGAAACUCAAGAUAGCTT against F830208F22Rik,inactive: 1.32
12,GCCAUCGCCAGGGAACAAATT against 9230105E10Rik,inactive: -0.808
13,GCAUCCUGUGAGGUCUAUCTT against Zfp316,inactive: 0.278
14,CCGGAACUAUCAAUAAAUGTT against Gbl,inactive: -1.06
15,CCAGUUGAGUCACUUACUGTT against 2010012O05Rik,inactive: -0.382
16,CCUGAUUGUCUUCAAUGGGTT against Cant1,inactive: 1.63
17,GGAGCAAGGCUACAUUUUUTT against Itih3,inactive: -0.555
18,CCCAAAAAGUUCAAACAAGTT against 1810015C04Rik,inactive: 2.24
19,CCAUAUUUAAGUCCCUGUCTT against Pim1,inactive: -0.129
20,AACUCCCUCCCUGUUGUAGTT against A4galt,inactive: -0.425
21,GGAAAAUUGGGAAAAUGUGTT against Sell,inactive: -1.6
22,GGAUUCGUAGUGGCUUCAGTT against Prss25,inactive: -1.48

row,Sequence,z-score
1,GGCUUGGUAUGAUGCGCACTT against Rbm12,inactive: 0.366
2,GCACCAAGUAUAGGAUUAATT against Grit,inactive: 0.792
3,GGUGCUAAAUUAUCCCUAUTT against C330046G03Rik,inactive: -0.271
4,GCUGGUGCUCUUCACCAUATT against 1110064L07Rik,inactive: 0.444
5,GGAAGAUACUAAUAGAGUATT against Enpep,inactive: 0.831
6,CCUUGUACCCAGUAAAGUCTT against 2310007B03Rik,inactive: -2.34
7,CUCCCUGGCAUUAAUCCGUTT against 1700055M20Rik,inactive: -0.728
8,GGAACAAAAAGAAAAGGACTT against 4933424A10Rik,inactive: 1.3
9,GGAGAAAGCCUUCCUUAGUTT against Trpc5,inactive: -0.503
10,GCAACUCUUGGUUUCCUGUTT against BC017647,inactive: 0.57
11,GCUAGAUGCUACGAGAUUGTT against Tipin,inactive: 0.231
12,GGCUUCCUAUCUGAUUACUTT against Acsl4,inactive: -0.0779
13,GGUGGACAUGCUGAAGUUGTT against Naga,inactive: -0.456
14,GGAUGUGAAUGAGUGUGAGTT against 1600015H20Rik,inactive: -1.07
15,GGCAAAAUAGAGAAAUACATT against D15Ertd366e,inactive: -0.997
16,CGUGAGGUUUGGAGGGUCATT against 3010033P07Rik,inactive: -3.06
17,CCGGUAUUACAACAAGUACTT against Atp5j2,inactive: -1.25
18,GCUAUACGUACAAUGGCAATT against Prrg2,inactive: 1.43
19,CGGAAUGUAGGACACGAAUTT against Ltb,inactive: 0.436
20,GGAACAUCACAGAAGCUACTT against Olfr141,inactive: -1
21,GCAUACCUAGACUGAAAACTT against BC003324,inactive: 0.503
22,GCCAGUGUUCGUGCCUGAUTT against C85492,inactive: -2.67

row,Sequence,z-score
1,CCAAAUCUCUCAAUUUAGGTT against BC066223,inactive: -0.235 and inactive: 0.517
2,CCACUACUUUCCUACAAAUTT against Stard8,inactive: 0.45
3,GGCUCAGUGAGUUUCAGAATT against Snx25,inactive: 0.423
4,GAUCUCAAACAUUCUAUGCTT against 1110014K05Rik,inactive: 0.747
5,GGAAAUGCUCCUCUAGGAUTT against 6330579B17Rik,inactive: 0.927
6,UAUCGUCCACAACUACUCATT against Epn1,inactive: 0.642
7,GCUCAUUGGAUGUUGCUGATT against Elf1,inactive: 0.564
8,GCAUGUGAUGCUACGUAUATT against Fmr1,inactive: 0.242
9,GGAUCUUCGUGUCCAUUUATT against E130120L08Rik,inactive: 0.321
10,GGUGGACACAUAUAGUCCCTT against Col27a1,inactive: 0.988
11,GCCAUUCUAGGAACUCUGATT against Thrap3,inactive: -0.935
12,GCGGUCAUGACAAGUCACUTT against A530087D17Rik,inactive: 0.223
13,CCAGUGAUUAAUGUGACCUTT against LOC210321,inactive: 0.847
14,GGAUUUUGUUGACAAUGAUTT against Brrn1,inactive: -1.34
15,GGACUGUGACAAAGCCUAUTT against Klk1,inactive: 0.534
16,UCAGGUCGCUGCUAAACUCTT against 4933434G05Rik,inactive: -0.284
17,GGGAAUAUCACAGGUGCCATT against Axl,inactive: -0.069
18,GCCCGGAGAACAUGAUUAUTT against Tead4,inactive: 0.904
19,GGAACCUCACAUCCAGUGATT against 9130218O11Rik,inactive: 1.02
20,GGGAUACUCCAAGUUCCAUTT against Muc4,inactive: 1.51
21,GGAAAUCUUUAUACAAGGATT against 4930467B06Rik,inactive: 1.49
